Values from PubChem BioAssay AID1224828 (NIAID, 2016)
In all, the deposit lists about 17,000 reagents; this is an unselected part. 762 of them (4.5%) were called active. 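Active calls include both raised and lowered p65 entry, mostly lowered; wells with fewer than 50 cells lack a z-score.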 Raw values are not corrected between plates.

Assay: 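Find genes required for NF-kappaB p65 moving into the nucleus after LPS in mouse macrophages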 (primary screen)
Cells: mouse RAW264.7 G9 macrophage reporter cells (GFP-p65, Tnf promoter-mCherry)
Reagent: siRNA pool against mouse genes, 100 nM
Timing: 2 days siRNA transfection, then 40 min LPS before fixation
Treatment: LPS (Salmonella minnesota R595) at 10 ng/ml
Detection: 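Imaged p65 nuclear translocation ratio, normalised to the plate median, converted to robust z-scores and averaged across two replicates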
Reading the numbers: p65 translocation robust z-score: higher = more nuclear NF-kappaB p65 after LPS than the plate median; nuclear/cytoplasmic p65 ratio: higher = more nuclear NF-kappaB p65
Active means: 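Active if robust z is above 3.3 (negative regulators) or below -1.56, the Tlr4 control median (positive regulators); activity score 50 or more; control wells not called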
Meaning of the calls: active = hit (p65 shift raised or lowered); inactive = no clear change

gene	p65 translocation robust z-score	nuclear/cytoplasmic p65 ratio, rep 1	nuclear/cytoplasmic p65 ratio, rep 2	low cell count flag	Outcome
Atp12a	0.38	1.57	1.66	enough cells to score	inactive
Phb2	-0.47	1.71	1.53	enough cells to score	inactive
Taar6	0.82	1.6	1.72	enough cells to score	inactive
Dtwd1		1.28	1.2	fewer than 50 cells per well; well left out of scoring	inactive
Nans	-0.86	1.64	1.46	enough cells to score	inactive
Fbxo36	-0.21	1.61	1.39	enough cells to score	inactive
Paf1		1.27	1.08	fewer than 50 cells per well; well left out of scoring	inactive
Ift80		1.52	1.66	fewer than 50 cells per well; well left out of scoring	inactive
Zfp397	0.55	1.39	1.31	enough cells to score	inactive
Itga4	-1.48	1.17	1.29	enough cells to score	inactive
Rhox2a		1.19	1.4	fewer than 50 cells per well; well left out of scoring	inactive
4931406H21Rik	-1.36	1.1	1.08	enough cells to score	inactive
Galns	0.12	1.42	1.41	enough cells to score	inactive
Cyrib	0.65	1.55	1.62	enough cells to score	inactive
Epb41l4a	-0.56	1.54	1.36	enough cells to score	inactive
Csf2rb	-0.33	1.36	1.4	enough cells to score	inactive
Arhgap10	1.07	1.7	1.72	enough cells to score	inactive
Ube2r2	0.95	1.62	1.65	enough cells to score	inactive
Sun2	-0.93	1.24	1.56	enough cells to score	inactive
B230219D22Rik	2.48	1.98	1.85	enough cells to score	inactive
Cdc42ep5	0.1	1.54	1.87	enough cells to score	inactive
Or4c112	-1.68	1.41	1.32	enough cells to score	active
Obox2	0.62	1.82	1.62	enough cells to score	inactive
Or13a28	1.01	1.52	1.44	enough cells to score	inactive
Dcaf4	2.98	1.72	1.66	enough cells to score	inactive
Chrnd	-1.2	1.18	1.23	enough cells to score	inactive
Elf4	-0.2	1.44	1.34	enough cells to score	inactive
Il4i1	0.44	1.61	1.53	enough cells to score	inactive

Continued, starting with the last 10 of the part before.
gene	p65 translocation robust z-score	nuclear/cytoplasmic p65 ratio, rep 1	nuclear/cytoplasmic p65 ratio, rep 2	low cell count flag	Outcome
Sun2	-0.93	1.24	1.56	enough cells to score	inactive
B230219D22Rik	2.48	1.98	1.85	enough cells to score	inactive
Cdc42ep5	0.1	1.54	1.87	enough cells to score	inactive
Or4c112	-1.68	1.41	1.32	enough cells to score	active
Obox2	0.62	1.82	1.62	enough cells to score	inactive
Or13a28	1.01	1.52	1.44	enough cells to score	inactive
Dcaf4	2.98	1.72	1.66	enough cells to score	inactive
Chrnd	-1.2	1.18	1.23	enough cells to score	inactive
Elf4	-0.2	1.44	1.34	enough cells to score	inactive
Il4i1	0.44	1.61	1.53	enough cells to score	inactive
Ppcdc	0.31	1.46	1.59	enough cells to score	inactive
C1qb	-0.47	1.58	1.51	enough cells to score	inactive
Lrrc41	2.53	1.87	1.98	enough cells to score	inactive
Abl1	0.12	1.57	1.4	enough cells to score	inactive
Phykpl	0.22	1.18	1.28	enough cells to score	inactive
Cfap65	0.66	1.72	1.58	enough cells to score	inactive
Dnase1l3		1.32	1.31	fewer than 50 cells per well; well left out of scoring	inactive
Ndc80		1.26	1.2	fewer than 50 cells per well; well left out of scoring	inactive
Or51k2	0.95	1.61	1.35	enough cells to score	inactive
Pax1	-1.37	1.32	1.22	enough cells to score	inactive
Mcm8	0.99	1.82	1.74	enough cells to score	inactive
Ssty2		1.24	1.1	fewer than 50 cells per well; well left out of scoring	inactive
Zmym2	0.54	1.66	1.51	enough cells to score	inactive
Rae1	-1.06	1.22	1.11	enough cells to score	inactive
Firrm	1.27	1.85	1.79	enough cells to score	inactive
Mier2	-0.19	1.43	1.38	enough cells to score	inactive
Arsa	0.3	1.71	1.62	enough cells to score	inactive
Oscp1	-0.76	1.39	1.22	enough cells to score	inactive
Pik3c2a	0.08	1.61	1.39	enough cells to score	inactive
Dpysl4		1.42	1.24	fewer than 50 cells per well; well left out of scoring	inactive
Cfap95		1.34	1.55	fewer than 50 cells per well; well left out of scoring	inactive
Cnih2	-0.02	1.61	1.76	enough cells to score	inactive
Armc12		1.31	1.4	fewer than 50 cells per well; well left out of scoring	inactive
Kcnn1	-2.19	1.23	1.06	enough cells to score	active
Pmf1		1.53	1.1	fewer than 50 cells per well; well left out of scoring	inactive
Thrap3	1.57	1.61	1.87	enough cells to score	inactive
Prss42		1.24	1.26	fewer than 50 cells per well; well left out of scoring	inactive
Mex3b		1.22	1.12	fewer than 50 cells per well; well left out of scoring	inactive
Baiap2l1	1.3	1.8	1.81	enough cells to score	inactive
Caprin1	1.26	1.83	1.73	enough cells to score	inactive
Hdgfl2	-0.68	1.4	1.58	enough cells to score	inactive
Ylpm1	-0.58	1.28	1.23	enough cells to score	inactive
Gjd4	0.47	1.56	1.54	enough cells to score	inactive
Crp	-0.44	1.56	1.66	enough cells to score	inactive
Amelx	-0.28	1.55	1.6	enough cells to score	inactive
Arhgef2	-0.36	1.58	1.55	enough cells to score	inactive
Zfp276	-0.75	1.28	1.19	enough cells to score	inactive
Sack1f	-1.07	1.51	1.42	enough cells to score	inactive
Gpr35	-0.19	1.51	1.52	enough cells to score	inactive
Fate1	1.87	1.59	1.9	enough cells to score	inactive
Lcn8	1.08	1.49	1.79	enough cells to score	inactive
Tmem119	0.41	1.66	1.89	enough cells to score	inactive
Tcl1b3		1.59	1.17	fewer than 50 cells per well; well left out of scoring	inactive
Folh1	-1.33	1.29	1.22	enough cells to score	inactive
Bcl7b	1.5	1.79	1.88	enough cells to score	inactive
Il18	-0.53	1.43	1.29	enough cells to score	inactive
Bricd5	0.45	1.55	1.54	enough cells to score	inactive
